The target in this series is Taq DNA polymerase (wild type) (UniProt P19821). Kind of series: binding assay. To be noted: [fluorescein-dT at 34]; dissociates 14-fold faster than D732R; too fast to record in FIG. 11 experiment; purified recombinant protein; label: fluorescein-dT at N (position 34); folded or branched DNA; letters built from the parent sequence and the stated change.

Amino acid sequences for entries named in this document (tags omitted).
UniProt P19821, whole entry: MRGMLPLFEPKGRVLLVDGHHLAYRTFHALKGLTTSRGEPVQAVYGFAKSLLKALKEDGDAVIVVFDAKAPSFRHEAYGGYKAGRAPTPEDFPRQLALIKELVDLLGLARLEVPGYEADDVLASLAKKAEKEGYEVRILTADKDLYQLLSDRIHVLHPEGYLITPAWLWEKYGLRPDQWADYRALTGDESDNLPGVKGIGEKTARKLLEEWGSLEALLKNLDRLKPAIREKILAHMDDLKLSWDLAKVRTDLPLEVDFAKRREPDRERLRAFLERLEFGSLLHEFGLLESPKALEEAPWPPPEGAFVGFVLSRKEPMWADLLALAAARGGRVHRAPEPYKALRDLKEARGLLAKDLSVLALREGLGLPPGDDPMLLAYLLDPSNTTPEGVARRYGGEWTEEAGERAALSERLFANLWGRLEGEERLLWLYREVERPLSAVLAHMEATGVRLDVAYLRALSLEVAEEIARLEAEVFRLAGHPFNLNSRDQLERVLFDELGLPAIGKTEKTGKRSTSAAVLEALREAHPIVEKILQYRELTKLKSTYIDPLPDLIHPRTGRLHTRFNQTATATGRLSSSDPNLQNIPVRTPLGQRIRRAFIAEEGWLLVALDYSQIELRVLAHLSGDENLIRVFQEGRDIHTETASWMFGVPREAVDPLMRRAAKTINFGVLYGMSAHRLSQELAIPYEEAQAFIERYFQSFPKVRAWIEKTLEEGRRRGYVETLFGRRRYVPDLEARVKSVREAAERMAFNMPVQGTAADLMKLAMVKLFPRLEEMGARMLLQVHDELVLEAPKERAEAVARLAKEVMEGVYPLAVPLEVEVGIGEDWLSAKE

The values below come from patent publication US20150094211.

Weaker means in comparison with the reference protein, sequence or condition of that experiment.

“TTTTTTTGCAGGTGACAGGTTTTTCCTGTCACCTGC [oligo 221]”: the binding result is “binds more weakly”.
